Results reported in PMC6761256.
No constants are given. Whether binding was seen depends on the method and setting. In cells and extracts the contact can be indirect. Some binding calls cover weakened binding; strength is not graded here.

What was measured:
[1] = molecular target: T1, RIP3 (rat (endogenous in brain tissue)) (UniProt Q9Z2P5); experiment: co-IP; endogenous proteins in lysates of rat brain tissue 6 h after CCI (weak RIPA lysis buffer, pre-cleared with protein A/G agarose); 500 ul extract with 2 ug primary antibody (RIP3 or MLKL precipitated) overnight at 4°C, protein A/G agarose 4 h at 4°C, immunoblot; also in rats given AAV-shA20 or AAV-shCtrl, Nec-1 or melatonin
T1 sequence: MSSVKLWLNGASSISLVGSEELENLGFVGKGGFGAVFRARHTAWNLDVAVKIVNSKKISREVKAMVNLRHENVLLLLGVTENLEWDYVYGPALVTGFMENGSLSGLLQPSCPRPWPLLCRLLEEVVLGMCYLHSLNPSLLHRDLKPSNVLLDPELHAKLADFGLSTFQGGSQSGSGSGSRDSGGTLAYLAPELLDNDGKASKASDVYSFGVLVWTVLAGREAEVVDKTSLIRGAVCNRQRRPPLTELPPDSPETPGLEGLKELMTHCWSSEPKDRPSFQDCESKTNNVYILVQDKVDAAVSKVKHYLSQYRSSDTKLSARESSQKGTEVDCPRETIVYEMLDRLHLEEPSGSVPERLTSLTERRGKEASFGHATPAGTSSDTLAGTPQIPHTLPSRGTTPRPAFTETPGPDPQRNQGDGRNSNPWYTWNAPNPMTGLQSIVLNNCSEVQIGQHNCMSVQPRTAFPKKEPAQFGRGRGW

[2] = molecular target: T2, mixed lineage kinase domain-like protein (rat (endogenous in brain tissue)) (UniProt D3ZKP6); experiment: as above
T2 sequence: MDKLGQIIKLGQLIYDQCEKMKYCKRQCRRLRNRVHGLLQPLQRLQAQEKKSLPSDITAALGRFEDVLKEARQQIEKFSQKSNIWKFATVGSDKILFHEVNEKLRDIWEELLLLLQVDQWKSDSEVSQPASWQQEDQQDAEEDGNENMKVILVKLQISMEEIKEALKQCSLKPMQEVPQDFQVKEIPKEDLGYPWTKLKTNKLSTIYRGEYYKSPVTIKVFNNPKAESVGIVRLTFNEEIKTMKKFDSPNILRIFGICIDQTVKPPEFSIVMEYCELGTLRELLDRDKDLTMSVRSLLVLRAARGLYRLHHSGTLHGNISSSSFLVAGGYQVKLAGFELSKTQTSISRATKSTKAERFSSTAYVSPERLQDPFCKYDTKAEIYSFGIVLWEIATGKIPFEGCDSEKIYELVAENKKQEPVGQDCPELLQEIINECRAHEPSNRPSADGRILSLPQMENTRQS

Binder	binding [1]	binding [2]
mixed lineage kinase domain-like protein (protein, UniProt D3ZKP6 1-462) MDKLGQIIKLGQLIYDQCEKMKYCKRQCRRLRNRVHGLLQPLQRLQAQEKKSLPSDITAALGRFEDVLKEARQQIEKFSQKSNIWKFATVGSDKILFHEVNEKLRDIWEELLLLLQVDQWKSDSEVSQPASWQQEDQQDAEEDGNENMKVILVKLQISMEEIKEALKQCSLKPMQEVPQDFQVKEIPKEDLGYPWTKLKTNKLSTIYRGEYYKSPVTIKVFNNPKAESVGIVRLTFNEEIKTMKKFDSPNILRIFGICIDQTVKPPEFSIVMEYCELGTLRELLDRDKDLTMSVRSLLVLRAARGLYRLHHSGTLHGNISSSSFLVAGGYQVKLAGFELSKTQTSISRATKSTKAERFSSTAYVSPERLQDPFCKYDTKAEIYSFGIVLWEIATGKIPFEGCDSEKIYELVAENKKQEPVGQDCPELLQEIINECRAHEPSNRPSADGRILSLPQMENTRQS	binds	
RIP3 (protein, UniProt Q9Z2P5 1-478) MSSVKLWLNGASSISLVGSEELENLGFVGKGGFGAVFRARHTAWNLDVAVKIVNSKKISREVKAMVNLRHENVLLLLGVTENLEWDYVYGPALVTGFMENGSLSGLLQPSCPRPWPLLCRLLEEVVLGMCYLHSLNPSLLHRDLKPSNVLLDPELHAKLADFGLSTFQGGSQSGSGSGSRDSGGTLAYLAPELLDNDGKASKASDVYSFGVLVWTVLAGREAEVVDKTSLIRGAVCNRQRRPPLTELPPDSPETPGLEGLKELMTHCWSSEPKDRPSFQDCESKTNNVYILVQDKVDAAVSKVKHYLSQYRSSDTKLSARESSQKGTEVDCPRETIVYEMLDRLHLEEPSGSVPERLTSLTERRGKEASFGHATPAGTSSDTLAGTPQIPHTLPSRGTTPRPAFTETPGPDPQRNQGDGRNSNPWYTWNAPNPMTGLQSIVLNNCSEVQIGQHNCMSVQPRTAFPKKEPAQFGRGRGW		binds
